Among the data in PubChem BioAssay AID328 (DTP/NCI, 2004) are T/C and survivor count values, retold here.

Molecules are shown by their SMILES. The list is a part of this screen's results and no random one: it is rich in T/C values a quarter to a half above the control, in often repeated tests (any T/C) and in doses without a T/C. Further doses and runs are listed elsewhere. T/C is the treated group as % of the vehicle group. Some doses have a count of surviving animals in place of a T/C: the source holds a T/C of zero for them, seemingly a mark for toxic or unscored doses. Some survivor counts are full or nearly so, which does not show that the dose was tolerated: the source hardly ever lists a survival T/C far under the control, and the zero likely stands for such cases as well. Survivors were counted at the toxicity check, usually on the fifth day, unless a day is given; later deaths do not show. Schedules are NCI's codes, read here as Q, the interval in days (D) or hours (H), X, the number of doses. For survival time, the PubChem record calls one and a half times the control and up active, and a quarter to a half above the control has no call in these data; cut-offs in other NCI protocols can differ. Signs of the kind (2×) give the number of equal values in this list. Some T/C values carry the count of animals alive at the toxicity check (mostly the fifth day); where none is given, no animal had died by that day. Some entries hold several experiments; the results are listed from low to high.

The assay deals with BDF1 mice, P388 leukemia ip, median survival T/C. Put plainly: NCI In Vivo Anticancer Drug Screen. Data for tumor model P388 Leukemia (intraperitoneal) in B6D2F1 (BDF1) mice. The conditions noted are these: T/C endpoint: median survival time, higher T/C = longer survival. The protocol: The antitumor activity of compounds was measured in mice bearing transplantable tumors. Survival or tumor size were measured and the results are expressed as the measurement made in the treated group (T) divided by the measurement made in the vehicle treated control group (C). The tumor model used in this assay is P388 Leukemia (intraperitoneal) in B6D2F1 (BDF1) mice

[1] abbreviates: dose: 100.0 mg/kg/injection, schedule: Q01DX009 (ip), vehicle: saline with Tween-80.
Where [2] appears, read: dose: 200.0 mg/kg/injection, schedule: Q01DX009 (ip), vehicle: saline with Tween-80.
The mark [3] stands for this setting: dose: 400.0 mg/kg/injection, schedule: Q01DX009 (ip), vehicle: saline with Tween-80.
Where [4] appears, read: dose: 100.0 mg/kg/injection, schedule: Q04DX003 (ip), vehicle: saline with Tween-80.
The mark [5] stands for this setting: dose: 400.0 mg/kg/injection, schedule: Q04DX003 (ip), vehicle: saline with Tween-80.
The mark [6] stands for this setting: dose: 400.0 mg/kg/injection, schedule: Q01DX009 (ip), vehicle: Klucel (hydroxypropylcellulose) (HPC).
The mark [7] stands for this setting: dose: 50.0 mg/kg/injection, schedule: Q01DX009 (ip), vehicle: saline with Tween-80.
The mark [8] stands for this setting: dose: 100.0 mg/kg/injection, schedule: Q01DX009 (ip), vehicle: Klucel (hydroxypropylcellulose) (HPC).
Where [9] appears, read: dose: 100.0 mg/kg/injection, schedule: Q01DX009 (ip), vehicle: saline.
Setting [10] is: dose: 100.0 mg/kg/injection, schedule: Q04DX003 (ip), vehicle: saline.
Where [11] appears, read: dose: 150.0 mg/kg/injection, schedule: Q01DX009 (ip), vehicle: saline.
[12] abbreviates: dose: 200.0 mg/kg/injection, schedule: Q04DX003 (ip), vehicle: saline.

As to `c1ccc2sc(SSN3CC4CCC(CC4)C3)nc2c1`, the T/C by setting is: under setting [1], 125 and 132 % of control; under setting [2], 136 and 145 % of control; under setting [3], 141 % of control.
On to `O/C(=C/C(=S)S)c1ccco1`, for which, where the note is “dose: 100.0 mg/kg/injection, schedule: Q04DX003 (ip), vehicle: water”, the survivor count is recorded as 6 of 6.
As to `CS/C(N)=N/N`, the survivor count (dose: 25.0 mg/kg/injection, schedule: Q04DX003 (ip), vehicle: saline) was 2 of 6.
For `O=C(c1ccccc1)C(O)(CC(c1ccccc1)[P+](c1ccccc1)(c1ccccc1)c1ccccc1)c1ccccc1` (stereo not given), the T/C is 125 % of control (dose: 1.75 mg/kg/injection, schedule: Q01DX009 (ip), vehicle: saline); 145 % of control (dose: 3.13 mg/kg/injection, schedule: Q01DX009 (ip), vehicle: saline with Tween-80); 127 % of control (dose: 6.25 mg/kg/injection, schedule: Q01DX009 (ip), vehicle: saline with Tween-80); 127 % of control (dose: 12.5 mg/kg/injection, schedule: Q01DX009 (ip), vehicle: Klucel (hydroxypropylcellulose) (HPC)). Further, the survivor count is listed as 6 of 6 (dose: 12.5 mg/kg/injection, schedule: Q01DX009 (ip), vehicle: saline with Tween-80); 2 of 6 (dose: 25.0 mg/kg/injection, schedule: Q01DX009 (ip), vehicle: Klucel (hydroxypropylcellulose) (HPC)); 3 of 6 (dose: 25.0 mg/kg/injection, schedule: Q04DX003 (ip), vehicle: Klucel (hydroxypropylcellulose) (HPC)); 5 of 6 (dose: 25.0 mg/kg/injection, schedule: Q04DX003 (ip), vehicle: saline with Tween-80); 4 of 6 (dose: 50.0 mg/kg/injection, schedule: Q04DX003 (ip), vehicle: Klucel (hydroxypropylcellulose) (HPC)); 0 of 6 (dose: 100.0 mg/kg/injection, schedule: Q04DX003 (ip), vehicle: Klucel (hydroxypropylcellulose) (HPC)). Besides, the survivor count under setting [4] is listed as 0 of 6; the survivor count (dose: 200.0 mg/kg/injection, schedule: Q04DX003 (ip), vehicle: saline with Tween-80) is on record as 0 of 6; the survivor count under setting [5] is reported as 0 of 6.
Take `FC(F)(F)c1nc2nc(Cl)c(Cl)nc2s1`: the survivor count (dose: 25.0 mg/kg/injection, schedule: Q01DX009 (ip), vehicle: other) is recorded as 3 of 6 and the survivor count (dose: 50.0 mg/kg/injection, schedule: Q01DX009 (ip), vehicle: other) is given as 5 of 6.
Regarding `O=C(Nc1ccc(C2=NCCN2)cc1)Nc1cccc(NC(=O)Nc2cccc(C3=NCCN3)c2)c1`, the survivor count under setting [4] is reported as 5 of 6.
With `S=c1nc[nH]c2c1ncn2CN1CCCCC1`, the T/C under setting [1] was 136 % of control.
For `C[C@]12CCC(=O)C=C1CC[C@H]1[C@@H]3CC[C@@]4(OCC4=O)[C@@]3(C)C[C@H](O)[C@@]12F`, the survivor count is, setting by setting: (dose: 200.0 mg/kg/injection, schedule: Q01DX009 (ip), vehicle: Klucel (hydroxypropylcellulose) (HPC)) 5 of 6; under setting [6], 5 of 6.
As to `CC(=O)C1CC2c3ccccc3C1c1ccccc12` (stereo not given), under setting [3], the survivor count is 6 of 6.
Regarding `C/C=C/c1ccccc1N/N=C(\Cl)C(=O)OCC`, the T/C runs as follows: under setting [7], 128 % of control; under setting [1], 128 % of control [5 of 6 alive]; under setting [2], 137 % of control [4 of 6 alive].
Take `CCCCCCCCCCCC[N+]1(CCCCCCCCCCCC)CCCC(C)C1` (stereo not given): the T/C (dose: 0.75 mg/kg/injection, schedule: Q01DX009 (ip), vehicle: Klucel (hydroxypropylcellulose) (HPC)) is 131 % of control and the T/C (dose: 1.5 mg/kg/injection, schedule: Q01DX009 (ip), vehicle: Klucel (hydroxypropylcellulose) (HPC)) was 134 % of control. Besides, the survivor count was 5 of 6 (dose: 3.0 mg/kg/injection, schedule: Q01DX009 (ip), vehicle: Klucel (hydroxypropylcellulose) (HPC)) and 3 of 6 (dose: 6.0 mg/kg/injection, schedule: Q01DX009 (ip), vehicle: Klucel (hydroxypropylcellulose) (HPC)).
As for `CN1CCN(c2nc3ccccc3n3nnnc23)CC1`, the survivor count (dose: 75.0 mg/kg/injection, schedule: Q01DX009 (ip), vehicle: saline with Tween-80) is reported as 7 of 7.
For the compound `CCc1ccc(C(C)(C)C)cc1`, under setting [2], the T/C was 127 % of control. Moreover, the survivor count (dose: 300.0 mg/kg/injection, schedule: Q01DX009 (ip), vehicle: saline with Tween-80) is recorded as 1 of 6.
Turning to `CC12OC1C(=O)c1ccccc1C2=O` (stereo not given), the survivor count is 6 of 6 (dose: 5.0 mg/kg/injection, schedule: Q01DX009 (ip), vehicle: Klucel (hydroxypropylcellulose) (HPC)); 6 of 6 (dose: 10.0 mg/kg/injection, schedule: Q01DX009 (ip), vehicle: Klucel (hydroxypropylcellulose) (HPC)); 4 of 6 (dose: 20.0 mg/kg/injection, schedule: Q04DX003 (ip), vehicle: Klucel (hydroxypropylcellulose) (HPC)).
Consider `CCOC(=O)c1c(NC(=O)CCl)ssc1=S`, for which the survivor count is given as 4 of 6 under setting [1], 6 of 6 under setting [4], 1 of 6 under setting [2] and 0 of 6 under setting [3].
For the compound `CC(Br)C(=O)c1ccc(OCc2ccccc2)cc1` (stereo not given), the T/C under setting [2] was 128 % of control [5 of 6 alive].
Take `N=C(N)c1ccc(Oc2ccc(Oc3ccc(C(=N)N)cc3)cc2)cc1`: the survivor count by setting is: under setting [7], 0 of 6; under setting [1], 0 of 6; under setting [2], 0 of 6.
With `NC1CCC(CCCC2CCCC2)CC1` (stereo not given), the survivor count under setting [8] was 0 of 6.
As for `Nc1nc(N)c(N=O)c(Nc2ccc(I)cc2)n1`, under setting [3], the survivor count was 2 of 6.
For the compound `CC(C)Cn1cnc2c(Sc3c([N+](=O)[O-])ncn3C)nc(N)nc21`, the T/C is 127 and 130 % of control [4 of 6 alive] under setting [8]; 130 % of control [5 of 6 alive] (dose: 150.0 mg/kg/injection, schedule: Q01DX009 (ip), vehicle: Klucel (hydroxypropylcellulose) (HPC)); 131 % of control (2×) (dose: 264.0 mg/kg/injection, schedule: Q04DX003 (ip), vehicle: Klucel (hydroxypropylcellulose) (HPC)); 131 % of control (dose: 400.0 mg/kg/injection, schedule: Q04DX003 (ip), vehicle: Klucel (hydroxypropylcellulose) (HPC)). Further, the survivor count under setting [8] is on record as 6 of 6 and the survivor count under setting [6] is recorded as 6 of 6.
As to `COc1ccc(C[n+]2cc([O-])on2)cc1`, the survivor count under setting [5] is 2 of 6.
For `O=C(O)C(O)C(O)C1[O][Sb][O]C1CO` (stereo not given), the T/C by setting is: (dose: 35.0 mg/kg/injection, schedule: Q01DX009 (ip), vehicle: saline) 127 % of control; (dose: 35.0 mg/kg/injection, schedule: Q04DX003 (ip), vehicle: saline) 140 % of control; (dose: 50.0 mg/kg/injection, schedule: Q04DX003 (ip), vehicle: saline) 135 % of control; (dose: 66.0 mg/kg/injection, schedule: Q04DX003 (ip), vehicle: saline) 130 and 140 % of control; under setting [9], 141 % of control; under setting [10], 131, 135, 140 % of control. The T/C is, setting by setting: under setting [11], 145 % of control; (dose: 150.0 mg/kg/injection, schedule: Q04DX003 (ip), vehicle: saline) 140 % of control; under setting [12], 125 % of control [4 of 6 alive]; (dose: 300.0 mg/kg/injection, schedule: Q04DX003 (ip), vehicle: saline) 130 % of control [4 of 6 alive]. Also, the survivor count under setting [11] was 6 of 6 and the survivor count (dose: 300.0 mg/kg/injection, schedule: Q01DX009 (ip), vehicle: saline) is reported as 0 of 6.
Consider `CCCC(N=Cc1ccccc1O)C(=O)O.CCCC(N=Cc1ccccc1O)C(=O)O.[Fe]` (stereo not given), for which the survivor count by setting is: under setting [9], 0 of 6; under setting [10], 3 of 6; under setting [12], 1 of 6.
